In all, about 53,000 sequences went through this assay and about 3,700 (7%) were called active.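 Rule for the calls: active = gene knockdowns whose robust z-score for IL-1 alpha signal is at least 2 or at most -2, so actives lie on both sides; inactive = the rest.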 This is one part of the list.
Assay: Components of the Cytosolic LPS Sensing Pathway: Gene Identification via Genome-wide siRNA Screen;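 note: robust z of the log signal after scaling to non-targeting control siRNA wells of the plate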
Settings: RAW264.7 macrophages, IL-1a HTRF, actives lie on both sides, screened at 100 nM (by protocol), cells primed 5 h with Pam3CSK4 first
Method in brief: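 IL-1a HTRF of supernatants after 24 hour LipidA transfection of Pam3CSK4-primed (5 hours) RAW264.7 cells, 48h post-siRNA transfection (100 nM). Scores: percent of plate negative-control median, then log-based robust z-score.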

Sequence	z-score
GCCACGAGUUCUUUGAAGCTT against Ubxn6	inactive: -0.15
GCGCGUUCCUGAUGUUUACTT against Alg11	inactive: -1.99
CGAUGACACUAUUAUGAGATT against Stpg2	inactive: -0.22
GGCUGAGGGUAAAAAGCUATT against Acyp1	inactive: -0.924
GACUUCGGGCAGCAGCAUATT against Atp5e	inactive: 1.36
CCGUCUGGGCAUGAUGAUATT against Dpep3	inactive: -0.408
CCAGAUGCCCUUAUAUUGGTT against Abhd12	inactive: -1.69
GGAAAAGUGGUGAACGACATT against Tm4sf4	inactive: 0.798
GGAAGAAGAAUACAAAGAUTT against Zfp40	inactive: 0.872
GGGCUCUUUGAUAAUCACUTT against Dnajb11	inactive: -1.06
GGAAAACAGUGGUAGCUUATT against Cnp	inactive: 0.187
GGAACACAGAAGUGAAAAATT against Olfr1260	inactive: -1.02
CCUGGUACAGUUUUCUAUATT against Prss48	inactive: -0.13
GGAGAUGCCUGGUGAUAAATT against N4bp2l2	inactive: 0.118
GGAUGACGAUUGUUUAUCATT against Bcl11a	inactive: -1.04
GGAAAGAGUCAUGGAAAUATT against Supt16	inactive: 0.55
GCCACUACUAAUAGCAUGUTT against 5330438I03Rik	inactive: -1.68
GCUACAAGUGAUCGUCAAUTT against Schip1	inactive: 0.667
CCUCGUCGAGUGGAAAAUUTT against Pxylp1	inactive: -0.574
GGAUUUUUGACUGUGAUUCTT against Pak1ip1	inactive: -1.57
CCGAUGGAUGAUCAAGACATT against Plekhf1	inactive: -1.17
GGAAGACAAUGCAAUAAUUTT against Ttc19	inactive: 0.936
GGCGUAAGGCAAUGUGGGUTT against Clrn1	inactive: -0.0505
GCCAAUAGUAACCAGCCAGTT against Prkab1	active: -2.07
GGCAGUAAGAACUACUAAATT against Ric1	active: 2.65
GCCUGGACCUUAAUUACUUTT against Ptpn14	inactive: 1.01
GAGAAUUAAAGUCAAACGUTT against Tasp1	inactive: -0.429
GCUUCGUUACGACGAUGAGTT against Ndufs3	inactive: 0.674
GGCAAAAUCUCCUCUAUCUTT against Olfr905	inactive: -1.03

Single values from the list:
z-score, GGGCUCUUUGAUAAUCACUTT against Dnajb11 reads inactive: -1.06
z-score, GGAAAACAGUGGUAGCUUATT against Cnp reads inactive: 0.187
